Data as given in PubChem BioAssay AID493014 (National Center for Advancing Translational Sciences (NCATS), 2011).
Screen size: about 340,000 compounds; about 170 (0.05%) were called active. The inconclusive results got no clear call from the source; some entries with a clear call stand among them for comparison. Calls come from the whole dose curve; as a rule, active = well fitted inhibition curve with a large enough effect in the signal ratio, with a control signal flat (not every such curve was filed as active); inconclusive = small, poorly fitted or top-dose-only effect, or effect the other way, or a change in a side signal; inactive = flat fitted curve, though single readings scatter; the % refers to the signal ratio. Potencies of inconclusive entries are doubtful fits and often do not repeat.

Test: qHTS Assay to Find Inhibitors of Chronic Active B-Cell Receptor Signaling;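 for activity change, negative = inhibition: plate controls were basal doxycycline-induced cells for no effect and cells given 10 µM MG132 for full effect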
Details: ABC-DLBCL IkBa-CBG/CBR reporter, luminescence ratio (green luciferase fused to IkBa over red control in TMD8 lymphoma cells), 4 h; activity change, negative = inhibition: at 46.1 µM (top of the series) unless noted
Outline: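 Cell line TMD8 (human ABC DLBCL), stably expressing tet-inducible CBG68-IkBa fusion and CBR; IMDM/0.5% FBS; cpd up to 46 uM; dox induction, 4 h, 37C/5% CO2; dual luminescence; green/red ratio; MG132 control.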
Potency is the fitted concentration of half-maximal effect.

SMILES | activity change, negative = inhibition | Potency
CN(C)c1nc(-c2ccccc2)cc(C(F)(F)F)c1C#N | inactive: 5.23% | 
CCC(CC)c1nn2c(N)c(/C=C3\C(C)=Nc4ccccc43)c(=O)nc2s1 | inactive: -4.24% | 
O=C(c1ccc(Cl)cc1)N1CCCC(C(=O)N2CCCCC2)C1 (stereo not drawn) | inconclusive: 8.2% | 
CC1Cn2c(nnc2C23CC4CC(CC(C4)C2)C3)S1 (stereo not drawn) | inactive: -0.642% | 
O=C(NNc1nc(-c2ccccc2)cs1)c1ccccc1 |  | inconclusive: 25.1 µM [falling, single point]
O=C(CNC(=O)c1ccccc1)N/N=C/c1ccc([N+](=O)[O-])s1 | inconclusive: -27.6% | 
COc1ccc(N2CC(NC(=O)C3CCCC3)CC2=O)cc1 (stereo not drawn) |  | inconclusive: 0.112 µM [falling, full curve, poor fit]
COc1cc(OC)cc(C(=O)Nc2cccc(NC(C)=O)c2)c1 |  | inconclusive: 5.17 µM [falling, partial curve, poor fit]
CCCCCOC(=O)CCN1C(=O)/C(=C2\SC(=S)N(CCC(=O)OCCCCC)C2=O)SC1=S | inconclusive: -12.3% | 
Cc1ccc2c(=O)[nH]c(Cc3ccccc3C(=O)O)nc2c1 | inconclusive: 19.7% | 
CCCC(=O)Nc1ccc2c(c1)nc(CN1CCN(C(=O)OCC)CC1)n2C | inconclusive: 0.0582% | 
CC1=CC(C)(C)n2c(O)c(N=NC(N)=S)c3cc(C)cc1c32 | inactive: -0.115% | 
O=C(c1ccco1)N1CCN(c2ncnc3c(-c4ccccc4)nsc23)CC1 | inconclusive: 11.7% | 
Cc1ccccc1NCC(=O)c1ccc(Br)cc1 |  | inconclusive: 35.5 µM [cytotoxic, single point]
O=C(O)c1cc2c(cc1NC(=O)C1CCCC1)OCCO2 |  | inconclusive: 32.6 µM [falling, partial curve, poor fit]
Cc1cc(C)cc(C(=O)OCC(=O)N2CCCC2)c1 | inconclusive: 10.4% | 
CC(C)(C)c1ccc(S(=O)(=O)N2CCC(c3ccncc3)CC2)cc1 |  | inconclusive: 0.398 µM [rising, full curve, poor fit]
Cc1cc(NC(=O)CCc2ccccc2)c([N+](=O)[O-])cc1C | inconclusive: 14.1% | 
CC1CN(Cc2cc(=O)n3ccsc3n2)CC(C)O1 (stereo not drawn) | inactive: 1.38% | 
COc1ccccc1OCCNC(=O)C1CC(=O)N(c2ccccc2OC)C1 (stereo not drawn) | inconclusive: -19.7% | 
CCCn1c(SCC(=O)N2CCc3ccccc3C2)nc2c1c(=O)n(C)c(=O)n2C | inconclusive: 15.8% | 
CCc1ccc(CN2CCC(C(=O)Nc3ccc(Oc4ccccc4)nc3)CC2)o1 | inconclusive: 13.5% | 
COc1ccccc1NC(=O)C(C)OC(=O)c1cc2ccccc2[nH]1 (stereo not drawn) |  | inconclusive: 13 µM [falling, partial curve, poor fit]
COc1ccc(N2CCN(C(=O)c3ccccc3N(C)S(=O)(=O)c3ccc(C)cc3)CC2)cc1 | inconclusive: 3.26% | 
CC12CCC(=O)N1c1c(sc3nc(N4CCOCC4)c4c(c13)CCCC4)C(=O)N2 (stereo not drawn) |  | inconclusive: 4.11 µM [falling, partial curve, poor fit]
Cc1ccc(-c2cc(C(=O)O)c3sc(N4CCCCC4)nc3n2)cc1 | inconclusive: 5.24% | 
O=[N+]([O-])c1ccc(NC(=S)NCCc2ccc(F)cc2)cc1 | inconclusive: 17.9% | 

Of the compounds above, 2 contain an NH in an aromatic ring:
SMILES | activity change, negative = inhibition | Potency
Cc1ccc2c(=O)[nH]c(Cc3ccccc3C(=O)O)nc2c1 | inconclusive: 19.7% | 
COc1ccccc1NC(=O)C(C)OC(=O)c1cc2ccccc2[nH]1 (stereo not drawn) |  | inconclusive: 13 µM [falling, partial curve, poor fit]

Carrying on:

SMILES | activity change, negative = inhibition | Potency
CCCCOc1ccc(/C=N/NC(=S)Nc2cccc(C)c2C)cc1 | inactive: -35.8% | 
COc1cc(C(=O)NCc2nnc(SCC(=O)Nc3nc4ccc(C)cc4s3)o2)cc(OC)c1OC | inconclusive: 0.967% | 
Cc1cc(-n2c(SCc3ccccc3F)nc3n[nH]c(C)c3c2=N)ccc1Cl | inactive: 21.6% | 
Cn1cnc(S(=O)(=O)NC2CCN(Cc3c(F)cccc3Cl)CC2)c1 | inactive: -0.851% | 
CC(C)c1cccc(C(C)C)c1NC(=O)COC(=O)C1CCC1 | inconclusive: 5.15% | 
COc1cc(Br)cc(/C=C/c2ccc3cccc(O)c3n2)c1O |  | inconclusive: 6.31 µM [falling, partial curve, poor fit]
COC(=O)C(CC(C)C)NC(=O)c1cc(OC)c(OC)c(OC)c1 (stereo not drawn) |  | inconclusive: 20.6 µM [falling, partial curve]
O=C(c1[nH]ncc1[N+](=O)[O-])N1CCOCC1 | inactive: 3.34% | 
Cc1ccc(NC(=O)CN(C)C(=O)c2cc(C)on2)cc1 | inconclusive: -0.492% | 
CCOC(=O)C1(Nc2nccs2)Sc2ccccc2NC1=O (stereo not drawn) | inconclusive: -20.7% | 
CC1=CC(=O)c2c(O)ccc(O)c2C1=O | inactive: 8.01% | 
Cc1ccc(C(=O)CCC(=O)OC(C)C(=O)NC2CCCCC2C)cc1 (stereo not drawn) | inactive: 2.33% | 
COCCNc1oc(-c2ccc(C)cc2)nc1C#N | inconclusive: 27.5% | 
CCOC(=O)C1CCCN(C(=O)c2cc(-c3ccc(C)cc3)on2)C1 (stereo not drawn) | inconclusive: -0.0186% | 
O=C(c1cccc2ccccc12)N1CCC(N2CCN(c3ccccc3)CC2)CC1 | inconclusive: -1.61% | 
CC1CCc2c(sc(NC(=O)C3CCCO3)c2C#N)C1 (stereo not drawn) | inactive: -0.72% | 
COc1ccc(OC)c(C(C)NC(=O)C23CC4CC(CC(C4)C2)C3)c1 (stereo not drawn) | inactive: -1.45% | 
CCOc1ccccc1NC(=O)N1C2CCCC1CC(NC(=O)C1CC1)C2 (stereo not drawn) | inconclusive: -18.8% | 
COC(=O)c1cc(Br)c(=O)n(CCc2ccc(O)cc2)c1 |  | inconclusive: 11.2 µM [falling, partial curve]
CC(C)n1ncc2c(C(=O)Nc3cccc(C#N)c3)cc(C3CC3)nc21 |  | inconclusive: 18.4 µM [rising, partial curve, poor fit]
CC1(C)Cc2c(c(N3CCOCC3)nc3snc(Br)c23)CO1 | inconclusive: -1% | 
CCCCCCCCCC[n+]1cccc2c3ccccc3ccc21 |  | inconclusive: 35.5 µM [falling, single point]
Cc1ccc(NC(=O)Cn2cccc2)cc1 | inconclusive: 12.8% | 
COCCNC(=S)NN=C1CCCCCC1 |  | inconclusive: 31.6 µM [cytotoxic, single point]
O=C(COc1ccccc1)Nc1ccc(CSc2ccccc2)cc1 | inconclusive: 0.135% | 
CCCc1ccc2oc(C(=O)N(C)Cc3ccn[nH]3)c(C)c2c1 | inconclusive: 7.1% | 

Entries of single compounds, looked up by structure:
COCCNC(=S)NN=C1CCCCCC1 is listed as Potency: inconclusive: 31.6 µM [cytotoxic, single point]
COc1cc(Br)cc(/C=C/c2ccc3cccc(O)c3n2)c1O is listed as Potency: inconclusive: 6.31 µM [falling, partial curve, poor fit]
